The text below walks through data of patent US5837807 (dated 1998).

The first data set can be described thus: general procedure: solution-phase peptide synthesis; polystyrene-divinylbenzene (named as a possible carrier); TATU/HOAT (HOPT)/ethyldiisopropylamine or EDC/HOBt/ethyldiisopropylamine. Conditions: coupling step, trifluoroacetate (1:1) for amine intermediates.
“tert.butyl (S)-1-[(12S,15S,18R)-12,15-dimethyl-11,14,17-trioxo-10,11,12,13,14,15,16,17,18,19,20,21-dodecahydro-1,18-etheno-dibenz[b,n]-[1,5,8,11]oxatriazacyclopentadecin-18-ylcarbamoyl]-ethyl carbamate” yielded a step yield of 90.4%.
On the same count and under the same terms, as for “tert.butyl [(S)-1-[(3S,7S,10S,13R)-3,7,10-trimethyl-6,9,12-trioxo-3,4,5,6,7,8,9,10,11,12,13,14,19,20-tetradecahydro-13,15-etheno-2H-1,5,8,11-benzoxatriazacyclohexadecin-13-ylcarbamoyl]-ethyl]-carbamate”, the figure is greater than 100%; as for “tert.butyl [(S)-1-[(3S,7S,10S,13R)-5-ethyl-3,7,10-trimethyl-6,9,12-trioxo-13,15-etheno-3,4,5,6,7,8,9,10,11,12,13,14,19,20-tetradecahydro-2H-1,5,8,11-benzoxatriazacyclohexadecin-13-ylcarbamoyl]-ethyl]-carbamate”, 86.4%.
“tert.butyl [(S)-1-[(12S,15S,18R)-12,15-dimethyl-11,14,17-trioxo-10,11,12,13,14,15,16,17,18,19,20,21-dodecahydro-1,18-etheno-pyrido[2,3-b]-benz[n][1,4,7,10]oxatriazacyclopentadecin-18-ylcarbamoyl]-ethyl]-carbamate” gave a step yield of 79.7%.
In turn, “tert.butyl [(S)-1[(13S,16S,19R)-13,16-dimethyl-12,15,18-trioxo-11,12,13,14,15,16,17,18,19,20,22-dodecahydro-1,19-etheno-10H-dibenz-[b,o][1,5,8,11]oxatriazacyclohexadecin-19-ylcarbamoyl]-ethyl]-carbamate” gave a step yield of 100%.

The data set is the same for the next values; noted with them: late stage modification step, trifluoroacetate (1:1) for amine intermediates.
“(S)-2-amino-N-[(3S,7S,10S,13R)-5-ethyl-3,7,10-trimethyl-6,9,12-trioxo-13,15-etheno-3,4,5,6,7,8,9,10,11,12,13,14,19,20-tetradecahydro-2H-1,5,8,11-benzoxatriazacyclohexadecin-13-yl]-propionamide trifluoroacetate (1:1)” came in with a step yield of 94.8%.
Still for that read-out and setting: as for “(S)-2-amino-N-[(12S,15S,18R)-12,15-dimethyl-11,14,17-trioxo-10,11,12,13,14,15,16,17,18,19,20,21-dodecahydro-1,18-etheno-dibenz[b,n][1,5,8,11]-oxatriazacyclopentadecin-18-yl]-propionamide trifluoroacetate (1:1)”, the figure is roughly 100%; as for “(S)-2-amino-N-[(12S, 15S,18R)-12,15-dimethyl-11,14,17-trioxo-10,11,12,13,14,15,16,17,18,19,20,21-dodecahydro-1,18-etheno-pyrido[2,3-b]benz[n][1,4,7,10]oxatriazacyclopentadecin-18-yl]-propionamide trifluoroacetate (1:1)”, 87%.
In the case of “(S)-2-amino-N-[(13S,16S,19R)-13,16-dimethyl-12,15,18-trioxo-11,12,13,14,15,16,17,18,19,20,21,22-dodecahydro-1,19-etheno-10H-dibenz[b,o][1,5,8,11]oxatriazacyclohexadecin-19-yl]-propionamide trifluoroacetate (1:1)”, the step yield came to 75.4%.
